# Measured data: PubChem BioAssay AID743454 (Peter MacCallum Cancer Centre, 2014)
# Assay: 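Knock-downs lowering viability or raising caspase 3/7 activity in vorinostat-treated resistant cells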 (primary screen)
# System: human HCT116-VR colon cancer cells, selected for vorinostat resistance
# Knock-down reagent: siRNA pool against human genes, 40 nM siRNA pool
# Time to read-out: vorinostat for 24 h, read-out about 72 h after transfection
# Conditions: vorinostat at 2.5 µM final
# Read-out: 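Two measures, CellTiter-Fluor viability and luminescent caspase 3/7 activity, each as fold change against same-plate mock wells, mean of duplicates, then screen-wide robust z-score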
# Scale: viability robust z-score: higher = more viable cells than screen typical; caspase robust z-score: higher = more caspase 3/7 activity than screen typical
# Hit rule: 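a knock-down is a hit when classed RV1 or RV2 for lowered viability, or CA1 or CA2 for caspase activation; those lethal without drug were dropped; hits were retested singly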
# The deposit covers about 18,000 reagents; below is a random part of them. 450 of all reagents (2.5%) count as active. 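Single biological run; no consistent viability z cut-off exists, so the class columns, not z-scores, define the calls.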 No sequences are given here.
gene knocked down,PubChem SID,viability hit class,caspase hit class,viability robust z-score,caspase robust z-score,Call
MRFAP1 (Morf4 family associated protein 1),SID134319148,no change,no change,0.06,-0.7,inactive
GAGE2C (G antigen 2C),SID152152527,no change,no change,0.52,1.09,inactive
CALHM5 (calcium homeostasis modulator family member 5),SID152149745,no change,no change,-0.92,0.78,inactive
CAND2 (cullin associated and neddylation dissociated 2 (putative)),SID152155156,no change,no change,-1.61,4.25,inactive
CRYGC (crystallin gamma C),SID134317377,no change,no change,1.29,0.08,inactive
ENPP7 (ectonucleotide pyrophosphatase/phosphodiesterase 7),SID134313895,no change,no change,0.77,-0.92,inactive
PRSS12 (serine protease 12),SID134311433,no change,no change,1.43,-0.29,inactive
MTHFD1,SID134314308,no change,no change,0.58,-0.78,inactive
ZNF404 (zinc finger protein 404),SID135624400,no change,no change,0.22,-0.91,inactive
HOXD8 (homeobox D8),SID134317475,no change,no change,1.17,-0.03,inactive
GOLGA7B (golgin A7 family member B),SID135624836,no change,no change,-0.91,-0.38,inactive
STARD3 (StAR related lipid transfer domain containing 3),SID134321584,no change,no change,0.05,1.34,inactive
RFWD3 (ring finger and WD repeat domain 3),SID152147600,no change,no change,-2.79,2.77,inactive
LRRC3B (leucine rich repeat containing 3B),SID135622902,no change,no change,-1.17,0.56,inactive
SLC41A2,SID152150488,no change,no change,-0.29,1,inactive
TMEM39B (transmembrane protein 39B),SID134324740,no change,no change,-0.01,0.44,inactive
PLCE1 (phospholipase C epsilon 1),SID135620790,no change,no change,-0.58,0.93,inactive
ALDH2 (aldehyde dehydrogenase 2 family member),SID134314481,no change,no change,0.68,0.96,inactive
PREX2,SID135622776,no change,no change,-0.18,-1.06,inactive
RCL1 (RNA terminal phosphate cyclase like 1),SID152153740,no change,no change,-0.98,-0.36,inactive
CCDC191 (coiled-coil domain containing 191),SID134318251,no change,no change,-1.57,2.77,inactive
PALM (paralemmin),SID135623782,no change,CA1 (caspase activation),-1.18,6.04,active
"BCAR3 (BCAR3 adaptor protein, NSP family member)",SID152152326,no change,no change,-1.36,-0.83,inactive
NXPH4 (neurexophilin 4),SID152152959,no change,no change,0.74,0.08,inactive
INPP5J (inositol polyphosphate-5-phosphatase J),SID152154678,no change,no change,-0.48,4.15,inactive
GOLPH3L (golgi phosphoprotein 3 like),SID152152963,no change,no change,-0.18,-1.38,inactive
EAF2 (ELL associated factor 2),SID134311726,no change,no change,2.11,-0.21,inactive
BTN3A1 (butyrophilin subfamily 3 member A1),SID135623680,RV2 (reduced viability),no change,-3.53,2.16,active
TRMT13 (tRNA methyltransferase 13),SID135622605,no change,no change,-0.84,-0.51,inactive
NMRAL1 (NmrA like redox sensor 1),SID134324404,no change,no change,-1.25,2.31,inactive
TAAR1 (trace amine associated receptor 1),SID152147864,no change,no change,0.59,-0.54,inactive
CBLC (Cbl proto-oncogene C),SID134312087,no change,no change,1.2,0.54,inactive
CCDC6 (coiled-coil domain containing 6),SID135621960,no change,no change,-0.52,0.08,inactive
NTAN1 (N-terminal asparagine amidase),SID134322244,no change,no change,-0.66,-0.6,inactive
WHAMM,SID152153006,no change,no change,-0.8,3.76,inactive
PLA2G12B (phospholipase A2 group XIIB),SID134314865,no change,no change,-1.27,2.88,inactive
FOXD4L6 (forkhead box D4 like 6),SID135625540,no change,no change,-0.56,-0.13,inactive
TENT5B (terminal nucleotidyltransferase 5B),SID134319220,no change,no change,-0.8,1.55,inactive
PTH1R (parathyroid hormone 1 receptor),SID134311148,no change,no change,1,-0.04,inactive
TLCD5 (TLC domain containing 5),SID134321709,no change,no change,-0.46,0.57,inactive
ZNF502 (zinc finger protein 502),SID134320504,no change,no change,-0.14,-0.64,inactive
OR2B2 (olfactory receptor family 2 subfamily B member 2),SID134313653,no change,no change,0.78,-0.1,inactive
DUSP7 (dual specificity phosphatase 7),SID135620703,no change,no change,-0.01,-0.46,inactive
ZNF470 (zinc finger protein 470),SID135625277,no change,no change,-0.68,1.56,inactive
RGS2 (regulator of G protein signaling 2),SID152155587,no change,no change,-0.58,2.47,inactive
RANGRF (RAN guanine nucleotide release factor),SID134324191,no change,no change,2.11,1.39,inactive
ABCC6 (ATP binding cassette subfamily C member 6),SID134312363,no change,no change,0.56,0.98,inactive
SAMD10 (sterile alpha motif domain containing 10),SID152152376,no change,no change,0.43,0.5,inactive
TGFB2 (transforming growth factor beta 2),SID134315044,no change,no change,1.61,-0.24,inactive
PHAX (phosphorylated adaptor for RNA export),SID135625195,no change,no change,-1.26,-1.25,inactive
APBB2 (amyloid beta precursor protein binding family B member 2),SID152147616,no change,no change,-0.26,1.9,inactive
PBRM1 (polybromo 1),SID152154099,no change,no change,0.86,-0.06,inactive
COL6A1 (collagen type VI alpha 1 chain),SID152154165,no change,no change,-0.21,3.62,inactive
FAM241A (family with sequence similarity 241 member A),SID134319507,no change,no change,1.7,0.24,inactive
DENND2B (DENN domain containing 2B),SID134315038,no change,no change,-0.12,4.25,inactive
ADRB1 (adrenoceptor beta 1),SID152148434,no change,no change,-1.11,0.78,inactive
GGA2,SID152152826,no change,no change,-0.03,0.5,inactive

Entries above whose gene name begins with G or g (4):
gene knocked down,PubChem SID,viability hit class,caspase hit class,viability robust z-score,caspase robust z-score,Call
GAGE2C (G antigen 2C),SID152152527,no change,no change,0.52,1.09,inactive
GOLGA7B (golgin A7 family member B),SID135624836,no change,no change,-0.91,-0.38,inactive
GOLPH3L (golgi phosphoprotein 3 like),SID152152963,no change,no change,-0.18,-1.38,inactive
GGA2,SID152152826,no change,no change,-0.03,0.5,inactive
